# Results published in PubChem BioAssay AID2685 (National Center for Advancing Translational Sciences (NCATS), 2010).
# The list shows a part of the results. Further columns of the screen follow, without active or inactive calls. Compounds called inactive in the main read-out are mostly missing here. Words in brackets tell the shape of the fitted curve; partial curves, single points and poor fits give uncertain potencies.
# Experiment: qHTS Assay for Lipid Storage Modulators in Drosophila S3 Cells;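 on cell number change: cells counted by Cell Tracker Red CMTPX staining in the red channel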
# Conditions: BODIPY lipid droplet fluorescence, 18-24 h; for cell number change: measured here: cell count max response, cells fed with added oleic acid
# Summary of the method: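 Drosophila S3 cells got compounds at several concentrations plus oleic acid (400 uM solution). Laser-scanning cytometry with 488 nm excitation read lipid droplets at 500-530 nm and cells at 575-640 nm. Percent activity was relative to 20 uM Triacsin C.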
# [1] = measured here: lipid fluorescence (Fed channel) AC50, cells fed with added oleic acid
# [2] = measured here: cell number channel AC50, cells fed with added oleic acid
SMILES,cell number change [%],AC50 [1],AC50 [2]
N#Cc1ccccc1OCC(=O)NC(=O)NC1CCS(=O)(=O)C1 (stereo not given),14.7,"58 nM [falling, full curve, poor fit]",
O=C(COC(=O)c1ccc(NS(=O)(=O)c2cccs2)cc1O)Nc1ccc(F)cc1,-46.4,,"116 nM [falling, full curve]"
COc1cccc(-n2c(SCC(=O)NCCC3=CCCCC3)nc3n[nH]c(C)c3c2=N)c1,2.11,,
COc1ccc(Oc2cc(C(F)(F)F)cnc2C(N)=O)cc1,37.2,"25900 nM [rising, single point]","23100 nM [rising, single point]"
COc1ccc(C(Nc2ccccn2)c2c(NC(=O)c3ccco3)sc(C)c2C)cc1 (stereo not given),7.46,"5170 nM [rising, partial curve, poor fit]",
O=C(CNC(=O)c1cccc(Cl)c1)N/N=C/c1cccnc1,30.5,,"16400 nM [rising, partial curve, poor fit]"
COc1cccc(CNn2cnnc2)c1OCc1ccc(F)cc1,22.1,"461 nM [rising, full curve]",
O=C(CN1CCCSc2ccccc21)N1CCN(S(=O)(=O)c2cccc(F)c2)CC1,-5.31,"146 nM [rising, full curve, poor fit]",
Cc1ccc(S(=O)(=O)N2CCN(C(=O)COC(=O)c3ccc(C(C)(C)C)cc3)CC2)c(C)c1,28.7,,
S=c1[nH]nc(C(c2ccccc2)C2CCCCC2)o1 (stereo not given),-23.7,"820 nM [falling, full curve, poor fit]","461 nM [falling, full curve, poor fit]"
Cc1ccccc1CNC(=O)Nc1ccc(Cl)cc1,-20.4,"16400 nM [rising, single point]",
CC(=O)C1=C(O)C(=O)N(c2ccc(Br)cn2)C1c1ccc(Br)cc1 (stereo not given),14,,"4610 nM [rising, single point]"
Cn1c(-c2ccc3nc(N)sc3c2)nc2cc(N)ccc21,,"184 nM [rising, partial curve]","184 nM [rising, partial curve]"
CCN(CC)C(=O)CSc1ncnc2c1nnn2-c1ccc(OC)cc1,-26.4,"1300 nM [falling, full curve]","1030 nM [falling, full curve, poor fit]"
COc1ccc([C@H]2CC(=O)C=C(c3ccc(OC(F)(F)F)cc3)C2)cc1,-16.7,"29100 nM [falling, partial curve, poor fit]",
Cc1ccc2nc(SCC(=O)NC3CCCc4ccccc43)[nH]c2c1 (stereo not given),15.5,"6510 nM [rising, single point]",
O=C(NCc1cccnc1)c1ccc(Br)o1,9.76,,
COc1cccc(-c2nc(N3CCN(C)CC3)c3ccccc3n2)c1O,-29,"3660 nM [falling, full curve]",
C=CCNC(=S)NNC(=O)c1ccc2c(c1)OCO2,13.5,,"517 nM [rising, single point]"
O=C1CC(c2ccc(F)cc2)Cc2nc(N3CCOCC3)ncc21 (stereo not given),-10.3,,
O=C(NC1CCCc2ccccc21)c1ccccc1Br (stereo not given),49.9,"29100 nM [rising, single point]",

SMILES,cell number change [%],AC50 [1],AC50 [2]
O=C(O)c1c2c(nc3ccc(S(=O)(=O)N4CCC(C(=O)NCc5ccc(Cl)cc5)CC4)cc13)CCCC2,14.6,"5.8 nM [rising, full curve]",
CCOC(=O)CN1CC23C=CC(O2)C(C(=O)NC2CCCCC2)C3C1=O (stereo not given),11.7,"920 nM [falling, full curve, poor fit]",
CCOc1ccc(CCNC(=O)COC(=O)c2cccc(N(C)C)c2)cc1OCC,-59.6,"1640 nM [falling, partial curve]","46.1 nM [falling, full curve]"
Cn1nnnc1SCC(=O)N1c2ccccc2CCc2ccccc21,-27,"1840 nM [falling, partial curve, poor fit]",
Cc1nc2c(-c3ccccc3)cnn2c(N)c1-c1ccccc1,,"5170 nM [falling, single point]",
CSCCC(NS(=O)(=O)c1ccc(Cl)c(Cl)c1)C(=O)O (stereo not given),,,"5.17 nM [rising, full curve, poor fit]"
Cc1ccccc1Cn1ccc(NC(=O)c2nn3cccnc3c2Cl)n1,16.4,"4610 nM [rising, full curve, poor fit]",
CCCn1c(SCC(=O)Nc2nnc(C(C)C)s2)nc2c1c(=O)n(C)c(=O)n2C,-0.835,"3660 nM [falling, full curve]",
CCc1nc(SCC(=O)O)c(C#N)c2c1CCCC2,30.5,"651 nM [rising, full curve, poor fit]",
CCc1c(C)c(C#N)c2nc3ccccc3n2c1-n1nc(C)cc1C,-9.15,"517 nM [falling, full curve]",
CC1CN(C(=O)N2c3ccccc3Sc3ccccc32)CC(C)O1 (stereo not given),0.658,,
CC1CCCN(C(=O)c2ccc(-c3ccccc3Cl)o2)C1 (stereo not given),-22.7,"29100 nM [falling, single point]",
O=C(COc1cccc(NC(=O)c2cccc([N+](=O)[O-])c2)c1)c1ccc(Br)cc1,26.4,,"164 nM [rising, full curve, poor fit]"
COC(=O)[C@H](Cc1ccccc1)NC(=O)Nc1ccc(OC)cc1,-7.78,"6510 nM [rising, single point]",
CC1CC1C(=O)OCC(=O)N(C)c1c(N)n(Cc2ccccc2)c(=O)[nH]c1=O (stereo not given),,,"3660 nM [rising, partial curve, poor fit]"
COc1ccccc1CCCNC(=O)C1CCC(=O)N(CCN2CCOCC2)C1 (stereo not given),12.9,"29100 nM [rising, single point]",
CCCCN(CC)C(=O)c1ccc(-c2ccccc2)cc1,21.5,"5170 nM [rising, full curve]",
CCCCOC(=O)Nc1cc(C(=O)OC)ccc1C(=O)OC,,"29100 nM [rising, partial curve]","116 nM [rising, full curve, poor fit]"
Cc1nn2c(-c3ccncc3)ccnc2c1Cl,41.5,,
N#Cc1cc2cc3c(cc2nc1SCC(=O)OC1CCCCC1)OCO3,4.48,"23100 nM [rising, single point]",
O=C(O)CCSc1nnc(SCC(=O)NCC(F)(F)F)s1,-7.71,,

SMILES,cell number change [%],AC50 [1],AC50 [2]
COc1ccc(NC(=O)C=C(C)C)cc1Cl,2.05,"13000 nM [rising, partial curve]",
CC(C)(C)c1cc(/C=N/NC(=O)C[n+]2ccccc2)cc(C(C)(C)C)c1O,,"651 nM [falling, partial curve]","3260 nM [falling, single point]"
O=C(Nc1ccc(-n2cccc2)cc1)C1CC1,20.7,,
Cc1ccc(-c2cnc(N)n2C)cc1C,,,"580 nM [rising, single point]"
NNC(=O)c1ccc(N2CCc3ccccc32)c([N+](=O)[O-])c1,-31,"16400 nM [falling, single point]","23100 nM [falling, single point]"
C/C(=N\Nc1nc2ccccc2[nH]1)c1ccccn1,2.63,,
CN(c1cccc(NC(=O)CN(c2cccc(Cl)c2)S(=O)(=O)c2ccccc2)c1)S(C)(=O)=O,-21.6,"23100 nM [falling, single point]",
COC(=O)CNC(=O)C1CCN(c2nc(C)cc(C)n2)CC1,15.4,"25900 nM [rising, single point]",
COc1ccc(N2CCN(S(=O)(=O)CCNC(=O)CCCc3ccccc3)CC2)cc1,19.9,,
O=C(NCc1ccco1)Oc1ccccc1,-8.36,"580 nM [falling, single point]","6510 nM [rising, single point]"
COc1ccc(Cl)cc1NC(=O)c1nnn(CC(=O)Nc2ccc(OC)c(OC)c2)c1N,11.5,"580 nM [rising, single point]",
COc1ccc(C(CNC(=O)c2oc3ccc(OC)cc3c2C)N2CCCC2)cc1 (stereo not given),,"184 nM [rising, full curve, poor fit]","3260 nM [falling, single point]"
Cc1cc(-n2c(C)cc(C(=S)N3CCOCC3)c2C)ccc1Br,26.6,"7310 nM [rising, partial curve, poor fit]",
Cc1nn(-c2ccc(F)cc2)c2c1cc(C#N)c1nc3ccccc3n12,,"116 nM [rising, full curve, poor fit]","103 nM [rising, full curve, poor fit]"
CC(=O)Nc1cc(ON=C(C)C)cc([N+](=O)[O-])c1,10.7,"18400 nM [rising, single point]",
O=C(Cc1c(O)c2ccccc2[nH]c1=O)NC1CCCCCCC1,3.25,"731 nM [falling, single point]",
Nc1ccccc1-c1nc2ccccc2[nH]1,,"580 nM [rising, single point]",
COCCCNC(=O)Cc1ccccc1OC,-6.03,"146 nM [falling, full curve, poor fit]",
O=C(NCCN1CCOCC1)c1cn(CCc2ccccc2)nn1,2.65,,
O=C(COC(=O)[C@H](Cc1ccccc1)NC(=O)c1cccs1)NC1CCCCC1,16.6,"10300 nM [rising, partial curve, poor fit]",
CCCCN1C(=O)C2C(c3ccc(OC)cc3O)NC(CC(C)C)(C(=O)O)C2C1=O (stereo not given),1.03,,

# At a glance, part of the list above.
SMILES,cell number change [%],AC50 [1],AC50 [2]
C/C(=N\Nc1nc2ccccc2[nH]1)c1ccccn1,2.63,,
CN(c1cccc(NC(=O)CN(c2cccc(Cl)c2)S(=O)(=O)c2ccccc2)c1)S(C)(=O)=O,-21.6,"23100 nM [falling, single point]",

# Some of these compounds in order of SMILES length, largest number first:
SMILES,cell number change [%],AC50 [1],AC50 [2]
CC(C)(C)c1cc(/C=N/NC(=O)C[n+]2ccccc2)cc(C(C)(C)C)c1O,,"651 nM [falling, partial curve]","3260 nM [falling, single point]"
COC(=O)CNC(=O)C1CCN(c2nc(C)cc(C)n2)CC1,15.4,"25900 nM [rising, single point]",
Cc1ccc(-c2cnc(N)n2C)cc1C,,,"580 nM [rising, single point]"
